No constants are given. Whether binding was seen depends on the method and setting. Some entries that bind do so weakly or less than the wild type.

Sequences of proteins named here, by UniProt entry; tags and fusion partners are left off. A change or cut given only in a name is not applied to a line headed by its entry. Residues count along the entry.
UniProt P98164, residues 1025-1102: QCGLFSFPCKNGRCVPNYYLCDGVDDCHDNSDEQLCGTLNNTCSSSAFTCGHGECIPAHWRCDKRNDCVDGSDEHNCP
UniProt P30533: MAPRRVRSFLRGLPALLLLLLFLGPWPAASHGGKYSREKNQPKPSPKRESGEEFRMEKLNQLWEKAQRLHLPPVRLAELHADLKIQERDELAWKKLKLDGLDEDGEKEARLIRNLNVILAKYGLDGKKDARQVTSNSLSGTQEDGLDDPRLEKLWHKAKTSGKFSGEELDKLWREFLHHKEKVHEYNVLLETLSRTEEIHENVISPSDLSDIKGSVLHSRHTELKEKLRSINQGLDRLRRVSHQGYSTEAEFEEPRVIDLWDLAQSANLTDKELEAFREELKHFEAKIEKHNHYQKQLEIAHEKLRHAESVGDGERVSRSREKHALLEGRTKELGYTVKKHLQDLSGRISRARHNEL

This note sets out measurements from patent US20090269346A1.

The target in the assay is LRP2 CR89 (human) (UniProt P98164). In words: solid-phase binding assay: CR protein coated on the plate, ligand titrated, anti-RAP polyclonal and HRP secondary, OD 450 nm.

In the case of “RAP d3 E251K, K256A, K270E (from UniProt P30533 235-353) (ligand)”, the binding result is listed as “binds”.
